Experimental data taken from patent US6001849A, “Furopyridine, thienopyridine pyrrolopyridine useful in controlling chemical synaptic transmission” (Abbott Laboratories, priority 1997, dated 1999).
Counter-ions that a name gives are not always drawn. For at least one compound, name, drawing or mass did not settle the structure.

Biological target: neuronal nicotinic acetylcholine receptors
Experiment: [3H]-cytisine ligand-receptor binding assay (crude synaptic membranes from whole rat brain)
Details: Table 1; [3H]-cytisine 1.25 nM, 4° C., 60 min; Ki by Cheng and Prusoff; read-out: [^3 H]-Cyt Binding
Experimental: For the purpose of identifying compounds as nicotinic acetylcholinergic agents which are capable of interacting with neuronal nicotinic acetylcholine receptors in the brain, a ligand-receptor binding assay was carried out as the initial screen. Compounds of the present invention were effective at interacting with neuronal nicotinic acetylcholine receptors as assayed for their ability to displace radioligand from neuronal nicotinic acetylcholine receptors labeled with [^3 H]-cytisine ([^3 H]-CYT).
A. Protocol For Determination of Nicotinic Acetylcholine Receptor Binding Potencies of Ligands
Binding of [^3 H]-CYT to nicotinic acetylcholine receptors was accomplished using crude synaptic membrane preparations from whole rat brain (Pabreza et al., Molecular Pharmacol., 1990, 39:9). Washed membranes were stored at -80° C. prior to use. Frozen aliquots were slowly thawed and resuspended in 20 volumes of buffer (containing: 120 mM NaCl, 5 mM KCl, 2 mM MgCl2, 2 mM CaCl2 and 50 mM Tris-Cl, pH 7.4 @4° C.). After centrifuging at 20,000×g for 15 minutes, the pellets were resuspended in 30 volumes of buffer. […] The filters were counted in 4 mL of Ecolume® (ICN). Nonspecific binding was determined in the presence of 10 μM (-)-nicotine and values were expressed as a percentage of total binding.

How did the Ki turn out when `Brc1ccc2oc([C@H]3CCCN3)cc2n1` [Example 33, 5-bromo-2-(2-(R)-pyrrolidinyl)-furo[3,2-b]pyridine hydrochloride] was run?
The Ki was 200 nM.
